These results are taken from the supplement of paper PMC11006884.

The chains behind the UniProt entries cited, without tags or fusion partners. Where a name states a change or a piece, a line headed by the entry shows the natural chain unless it says otherwise.
UniProt Q04721: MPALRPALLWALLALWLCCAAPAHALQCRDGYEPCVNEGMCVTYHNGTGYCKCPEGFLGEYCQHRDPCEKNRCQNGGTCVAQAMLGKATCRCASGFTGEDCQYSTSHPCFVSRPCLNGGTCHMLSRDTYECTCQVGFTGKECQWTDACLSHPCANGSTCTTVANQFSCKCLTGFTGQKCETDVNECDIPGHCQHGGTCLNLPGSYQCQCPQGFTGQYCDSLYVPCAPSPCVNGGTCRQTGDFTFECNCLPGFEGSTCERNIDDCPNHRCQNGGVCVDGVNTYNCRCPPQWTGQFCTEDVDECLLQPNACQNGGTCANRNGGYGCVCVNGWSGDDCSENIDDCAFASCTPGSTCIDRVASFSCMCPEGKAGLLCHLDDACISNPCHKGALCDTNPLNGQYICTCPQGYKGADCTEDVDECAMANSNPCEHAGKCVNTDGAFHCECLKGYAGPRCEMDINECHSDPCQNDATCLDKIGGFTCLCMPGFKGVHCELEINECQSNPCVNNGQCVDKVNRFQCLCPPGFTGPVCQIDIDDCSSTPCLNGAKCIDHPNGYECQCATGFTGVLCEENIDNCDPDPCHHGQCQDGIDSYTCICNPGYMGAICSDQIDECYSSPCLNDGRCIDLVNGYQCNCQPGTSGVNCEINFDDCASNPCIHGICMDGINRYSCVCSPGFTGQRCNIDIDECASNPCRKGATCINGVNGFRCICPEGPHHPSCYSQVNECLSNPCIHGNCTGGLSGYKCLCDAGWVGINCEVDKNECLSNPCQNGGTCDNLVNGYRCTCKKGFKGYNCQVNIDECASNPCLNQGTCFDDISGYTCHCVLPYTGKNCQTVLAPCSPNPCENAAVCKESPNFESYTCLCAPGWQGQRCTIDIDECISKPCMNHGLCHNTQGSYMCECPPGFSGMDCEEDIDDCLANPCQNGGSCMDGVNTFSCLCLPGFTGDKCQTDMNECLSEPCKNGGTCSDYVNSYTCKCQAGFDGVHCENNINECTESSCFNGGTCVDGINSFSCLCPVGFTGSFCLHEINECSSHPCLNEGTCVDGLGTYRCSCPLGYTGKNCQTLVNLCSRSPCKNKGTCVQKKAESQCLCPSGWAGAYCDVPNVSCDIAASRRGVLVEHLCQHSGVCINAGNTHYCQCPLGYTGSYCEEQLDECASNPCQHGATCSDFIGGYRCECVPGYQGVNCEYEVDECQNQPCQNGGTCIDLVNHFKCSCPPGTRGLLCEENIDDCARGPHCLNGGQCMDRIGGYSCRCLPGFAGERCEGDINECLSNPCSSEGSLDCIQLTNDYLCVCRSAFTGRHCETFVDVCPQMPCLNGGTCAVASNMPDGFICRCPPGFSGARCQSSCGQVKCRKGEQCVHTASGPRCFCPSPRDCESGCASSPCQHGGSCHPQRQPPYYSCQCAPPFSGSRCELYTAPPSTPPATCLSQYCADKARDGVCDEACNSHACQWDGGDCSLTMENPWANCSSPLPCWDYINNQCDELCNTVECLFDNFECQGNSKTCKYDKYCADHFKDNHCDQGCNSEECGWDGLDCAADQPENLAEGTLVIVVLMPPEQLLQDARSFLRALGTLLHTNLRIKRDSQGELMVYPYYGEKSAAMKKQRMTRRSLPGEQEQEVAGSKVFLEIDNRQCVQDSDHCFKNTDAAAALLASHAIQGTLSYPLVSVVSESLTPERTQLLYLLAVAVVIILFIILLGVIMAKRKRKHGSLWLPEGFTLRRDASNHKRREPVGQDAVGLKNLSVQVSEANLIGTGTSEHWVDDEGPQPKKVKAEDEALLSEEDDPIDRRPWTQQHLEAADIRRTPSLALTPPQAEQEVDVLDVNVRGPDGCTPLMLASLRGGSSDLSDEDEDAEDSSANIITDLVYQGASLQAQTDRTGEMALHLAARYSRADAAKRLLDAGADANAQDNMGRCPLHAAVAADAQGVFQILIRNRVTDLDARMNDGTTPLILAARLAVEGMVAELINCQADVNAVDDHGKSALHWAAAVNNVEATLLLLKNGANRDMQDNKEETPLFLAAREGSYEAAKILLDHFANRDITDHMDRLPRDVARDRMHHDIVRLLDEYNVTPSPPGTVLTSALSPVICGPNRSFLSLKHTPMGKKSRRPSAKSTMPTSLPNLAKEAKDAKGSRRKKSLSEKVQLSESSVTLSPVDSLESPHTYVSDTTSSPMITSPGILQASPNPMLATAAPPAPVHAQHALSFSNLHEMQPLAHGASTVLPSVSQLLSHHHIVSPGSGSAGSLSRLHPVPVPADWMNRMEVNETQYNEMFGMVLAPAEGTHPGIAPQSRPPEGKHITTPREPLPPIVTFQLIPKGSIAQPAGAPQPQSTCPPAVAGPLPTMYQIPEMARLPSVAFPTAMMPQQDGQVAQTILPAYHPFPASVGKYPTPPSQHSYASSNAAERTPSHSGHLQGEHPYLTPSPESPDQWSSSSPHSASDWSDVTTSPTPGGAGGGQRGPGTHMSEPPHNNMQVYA
UniProt Q05048: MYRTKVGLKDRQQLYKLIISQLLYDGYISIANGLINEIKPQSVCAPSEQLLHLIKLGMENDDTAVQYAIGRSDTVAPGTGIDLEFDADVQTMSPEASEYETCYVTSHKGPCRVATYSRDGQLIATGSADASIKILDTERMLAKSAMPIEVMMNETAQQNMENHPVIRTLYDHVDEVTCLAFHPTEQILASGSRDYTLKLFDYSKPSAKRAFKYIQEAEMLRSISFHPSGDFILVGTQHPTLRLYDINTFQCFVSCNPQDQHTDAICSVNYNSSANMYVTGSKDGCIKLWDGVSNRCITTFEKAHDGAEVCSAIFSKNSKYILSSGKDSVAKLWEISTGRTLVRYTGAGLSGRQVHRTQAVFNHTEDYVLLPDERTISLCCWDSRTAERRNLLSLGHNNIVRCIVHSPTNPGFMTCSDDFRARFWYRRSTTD
UniProt Q04637, whole entry, looked up: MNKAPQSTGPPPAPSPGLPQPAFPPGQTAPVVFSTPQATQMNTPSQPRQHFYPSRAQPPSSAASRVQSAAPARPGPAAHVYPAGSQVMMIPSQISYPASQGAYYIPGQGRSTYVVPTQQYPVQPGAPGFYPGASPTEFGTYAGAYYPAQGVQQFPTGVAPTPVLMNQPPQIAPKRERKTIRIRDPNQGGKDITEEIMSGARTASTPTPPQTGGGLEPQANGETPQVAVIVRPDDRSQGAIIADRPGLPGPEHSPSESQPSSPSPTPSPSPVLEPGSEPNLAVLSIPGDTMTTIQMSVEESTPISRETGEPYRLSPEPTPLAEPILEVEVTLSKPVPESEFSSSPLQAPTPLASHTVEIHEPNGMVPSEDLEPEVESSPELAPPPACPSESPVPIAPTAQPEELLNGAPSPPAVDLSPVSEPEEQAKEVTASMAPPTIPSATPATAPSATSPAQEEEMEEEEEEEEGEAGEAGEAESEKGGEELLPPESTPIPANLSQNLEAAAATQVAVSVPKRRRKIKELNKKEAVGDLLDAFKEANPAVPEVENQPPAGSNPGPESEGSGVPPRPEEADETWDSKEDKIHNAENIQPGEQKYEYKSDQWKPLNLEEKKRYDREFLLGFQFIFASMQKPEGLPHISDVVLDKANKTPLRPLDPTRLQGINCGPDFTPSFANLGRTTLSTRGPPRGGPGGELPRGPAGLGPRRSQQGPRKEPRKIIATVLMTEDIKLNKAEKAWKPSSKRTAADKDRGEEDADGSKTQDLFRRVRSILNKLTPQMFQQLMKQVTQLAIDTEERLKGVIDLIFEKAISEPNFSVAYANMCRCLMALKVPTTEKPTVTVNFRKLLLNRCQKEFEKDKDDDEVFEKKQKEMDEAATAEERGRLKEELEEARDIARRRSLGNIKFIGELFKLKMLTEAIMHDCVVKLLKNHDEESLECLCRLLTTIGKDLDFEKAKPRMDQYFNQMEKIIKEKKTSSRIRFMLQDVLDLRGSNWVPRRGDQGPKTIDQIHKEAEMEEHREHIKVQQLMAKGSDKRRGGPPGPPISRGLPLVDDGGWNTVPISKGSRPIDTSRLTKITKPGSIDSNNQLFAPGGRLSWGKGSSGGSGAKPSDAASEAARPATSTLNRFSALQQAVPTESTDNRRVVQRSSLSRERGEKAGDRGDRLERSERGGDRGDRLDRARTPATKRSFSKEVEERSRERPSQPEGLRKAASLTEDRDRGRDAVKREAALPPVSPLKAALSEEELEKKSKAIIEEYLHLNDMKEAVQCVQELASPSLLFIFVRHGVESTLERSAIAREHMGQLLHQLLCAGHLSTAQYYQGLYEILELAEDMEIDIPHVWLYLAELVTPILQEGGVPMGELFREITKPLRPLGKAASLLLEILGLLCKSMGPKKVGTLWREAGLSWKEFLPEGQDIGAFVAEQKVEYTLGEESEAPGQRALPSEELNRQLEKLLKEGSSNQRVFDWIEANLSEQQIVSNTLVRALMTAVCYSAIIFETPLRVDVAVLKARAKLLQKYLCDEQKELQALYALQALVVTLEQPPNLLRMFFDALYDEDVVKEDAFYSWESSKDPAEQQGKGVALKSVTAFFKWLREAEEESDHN
UniProt Q13045: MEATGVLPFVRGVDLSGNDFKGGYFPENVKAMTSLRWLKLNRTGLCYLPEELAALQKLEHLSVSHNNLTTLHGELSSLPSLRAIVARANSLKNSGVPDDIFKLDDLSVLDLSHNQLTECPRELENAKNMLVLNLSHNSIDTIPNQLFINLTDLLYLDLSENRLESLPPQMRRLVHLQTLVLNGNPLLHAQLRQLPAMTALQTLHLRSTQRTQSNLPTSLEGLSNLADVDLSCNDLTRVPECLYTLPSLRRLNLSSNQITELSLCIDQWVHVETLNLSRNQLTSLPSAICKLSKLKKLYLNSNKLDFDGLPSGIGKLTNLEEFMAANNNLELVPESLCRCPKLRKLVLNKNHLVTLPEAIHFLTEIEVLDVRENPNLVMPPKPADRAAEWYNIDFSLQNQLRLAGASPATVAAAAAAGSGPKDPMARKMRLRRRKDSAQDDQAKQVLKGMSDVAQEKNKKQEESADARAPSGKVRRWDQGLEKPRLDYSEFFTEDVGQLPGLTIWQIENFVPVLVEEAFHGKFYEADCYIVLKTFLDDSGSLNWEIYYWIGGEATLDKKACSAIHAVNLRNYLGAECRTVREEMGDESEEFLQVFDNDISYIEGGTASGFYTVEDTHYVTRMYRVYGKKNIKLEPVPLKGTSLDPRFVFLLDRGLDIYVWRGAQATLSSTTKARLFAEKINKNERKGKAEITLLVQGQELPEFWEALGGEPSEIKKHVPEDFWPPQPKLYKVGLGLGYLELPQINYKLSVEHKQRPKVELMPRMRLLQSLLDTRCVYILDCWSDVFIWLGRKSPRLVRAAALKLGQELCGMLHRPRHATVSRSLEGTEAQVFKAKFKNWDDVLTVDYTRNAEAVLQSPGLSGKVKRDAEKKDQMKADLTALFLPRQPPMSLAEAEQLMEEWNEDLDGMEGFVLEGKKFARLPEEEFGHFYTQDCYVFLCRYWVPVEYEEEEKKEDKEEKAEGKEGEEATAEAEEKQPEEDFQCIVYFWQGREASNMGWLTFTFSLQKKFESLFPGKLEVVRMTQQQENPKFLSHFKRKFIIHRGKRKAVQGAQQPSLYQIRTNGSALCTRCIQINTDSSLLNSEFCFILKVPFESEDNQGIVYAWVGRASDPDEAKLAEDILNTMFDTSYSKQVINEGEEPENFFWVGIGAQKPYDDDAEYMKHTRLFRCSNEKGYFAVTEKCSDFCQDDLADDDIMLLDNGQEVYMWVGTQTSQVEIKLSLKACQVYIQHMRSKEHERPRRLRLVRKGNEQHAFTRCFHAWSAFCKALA
UniProt Q12788: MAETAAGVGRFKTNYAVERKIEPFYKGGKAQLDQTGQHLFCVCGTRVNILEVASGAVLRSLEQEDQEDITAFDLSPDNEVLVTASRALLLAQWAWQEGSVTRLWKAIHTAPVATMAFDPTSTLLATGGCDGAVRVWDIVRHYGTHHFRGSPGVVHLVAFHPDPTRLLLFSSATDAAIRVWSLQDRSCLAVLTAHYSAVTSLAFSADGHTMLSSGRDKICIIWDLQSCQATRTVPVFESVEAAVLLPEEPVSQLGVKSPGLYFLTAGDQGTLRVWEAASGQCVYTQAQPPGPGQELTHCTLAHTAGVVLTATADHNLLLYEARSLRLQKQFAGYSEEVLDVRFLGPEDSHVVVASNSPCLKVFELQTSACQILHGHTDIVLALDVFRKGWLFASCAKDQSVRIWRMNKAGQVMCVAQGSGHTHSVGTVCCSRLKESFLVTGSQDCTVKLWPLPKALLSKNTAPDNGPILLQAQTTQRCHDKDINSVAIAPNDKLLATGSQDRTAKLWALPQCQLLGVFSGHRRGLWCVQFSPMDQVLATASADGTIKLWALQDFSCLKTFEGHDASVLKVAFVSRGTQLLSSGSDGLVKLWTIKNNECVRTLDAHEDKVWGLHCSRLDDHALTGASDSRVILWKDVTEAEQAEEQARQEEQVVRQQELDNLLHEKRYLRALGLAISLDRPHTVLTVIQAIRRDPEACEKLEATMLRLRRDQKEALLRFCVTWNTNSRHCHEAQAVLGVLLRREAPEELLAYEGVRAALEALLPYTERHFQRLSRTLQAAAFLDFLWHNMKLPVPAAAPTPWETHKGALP

The entries are a selection whose mix differs from that of the whole data set.

Compound in the assay: COC(=O)C#Cc1ccccc1 [methyl 3-phenylpropiolate]
The assay can be described thus: log2 ratio of iodoacetamide-alkyne labeling of the cysteine site, DMSO over compound (competition); higher = stronger covalent engagement of the cysteine by the compound, active = 1 or more. The following applies: 500 µM; treatment time 1 h; system: HEK293T cell lysate. The method, boiled down: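 Reporter intensities give each cysteine's log2 competition ratio as the mean of control channels over the mean of compound channels. The samples were HEK293T lysate (2 mg/mL) given vehicle or electrophile (500 µM, 1 h, ambient temperature), then iodoacetamide alkyne (1 h), followed by click coupling to sCIP-TMT reagents, pooling, trypsin digestion overnight at 37 °C, streptavidin enrichment, acid elution, Orbitrap Eclipse LC-MS/MS with FAIMS and FragPipe quantification. Duplicate channels and three replicates were run, and cysteines quantified in only one replicate were discarded.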
With AP1B1 C129 (UniProt Q10567), the “log2 ratio of iodoacetamide-alkyne labeling” value (“log2 ratio” below) is inactive: 0.414.
The figure for UniProt Q13131_C185 is inactive: 0.795.
For PTPN11 C567 (UniProt Q06124) the value was inactive: 0.725; for RING1 C72 (UniProt Q06587), inactive: 0.171.
The figure for GTF3C1 C1783 (UniProt Q12789) is inactive: 0.152; for UniProt Q03188_C612 it is inactive: 0.626.
On to TLE3 C528 (UniProt Q04726), for which the “log2 ratio” value is active: 1.34.
The figure for GTF3C1 C1681 (UniProt Q12789) is inactive: 0.12.
For NOTCH2 C2085 (UniProt Q04721) the value was inactive: 0.208; for AHNAK C1967 (UniProt Q09666), inactive: 0.463; for CSTF1 C178 (UniProt Q05048), inactive: 0.0622.
For PTPN11 C573 (UniProt Q06124) the value was inactive: 0.725; for ACACA C2075 (UniProt Q13085), inactive: -0.155; for NSUN2 C678 (UniProt Q08J23), inactive: 0.247.
Consider EIF4G1 C1384 (UniProt Q04637), for which the “log2 ratio” value was inactive: 0.102.
The figure for TRIM28 C713 (UniProt Q13263) is inactive: -0.0745; for UniProt Q08117_C89 it is inactive: 0.488; for NSUN2 C221 (UniProt Q08J23) it is inactive: 0.104.
For EHHADH C559 (UniProt Q08426) the value was inactive: 0.111.
NCBP1 C616 (UniProt Q09161): the “log2 ratio” value is inactive: 0.123.
For UniProt Q13243_C63 the value was inactive: 0.221.
For CTBP1 C134 (UniProt Q13363) the value was inactive: -0.0572.
TRIM28 C124 (UniProt Q13263): the “log2 ratio” value is inactive: 0.236.
In the case of CAMSAP2 C512 (UniProt Q08AD1), the “log2 ratio” value was inactive: 0.622.
The figure for EP300 C1164 (UniProt Q09472) is inactive: 0.615.
For FLII C1265 (UniProt Q13045) the value was inactive: 0.31; for ROCK1 C1300 (UniProt Q13464), inactive: 0.212; for PRDM2 C718 (UniProt Q13029), inactive: 0.513.
The figure for DHX9 C242 (UniProt Q08211) is inactive: -0.0869; for NUP160 C1166 (UniProt Q12769) it is inactive: 0.463.
With TRAF2 C112 (UniProt Q12933), the “log2 ratio” value is inactive: 0.213.
For UniProt Q0D2I5_C349 the value was inactive: 0.944; for UniProt Q13247_C61, inactive: -0.0753.
Turning to C1QBP C186 (UniProt Q07021), the “log2 ratio” value was inactive: 0.23.
Regarding VAC14 C719 (UniProt Q08AM6), the “log2 ratio” value was inactive: 0.526.
With TBL3 C696 (UniProt Q12788), the “log2 ratio” value was inactive: 0.373.
For CHAF1A C207 (UniProt Q13111) the value was inactive: 0.995; for PRDX4 C245 (UniProt Q13162), inactive: 0.5.
